Test results taken from US20040102382A1, “Targeting peptides” (priority 2002, published 2004).

Test system: heart
Test: In vivo phage display selection targeting heart
Design: species or system Balb/c mice
Conditions: after three rounds of selection

HFTFPQQQPPRP
Frequency (number of times the sequence was found/number of sequences done): 3/50

HLPTSSLFDTTH
Frequency (number of times the sequence was found/number of sequences done): 4/50

HVNKLHG
Frequency (number of times the sequence was found/number of sequences done): 3/50

HWAPSMYDYVSW
Frequency (number of times the sequence was found/number of sequences done): 12/50

LSPQRASQRLYS
Frequency (number of times the sequence was found/number of sequences done): 3/50

QTSSPTPLSHTQ
Frequency (number of times the sequence was found/number of sequences done): 5/50

SGRIPYL
Frequency (number of times the sequence was found/number of sequences done): 3/50

THPRFAR [X1THPRFATX2]
Frequency (number of times the sequence was found/number of sequences done): 10/50

WKSELPVQRARF
Frequency (number of times the sequence was found/number of sequences done): 3/50

YPSAPPQWLTNT
Frequency (number of times the sequence was found/number of sequences done): 4/50
